Whole data set: some 33,000 sequences, median “E-score (-0.5 to 0.5)” near -8e-05, cut for the highest 2% near 0.23. The list shows a part of the results.
The sequences below were run against T1, Nrg2 (UniProt P38082) (assay: PBM E-score (8-mer binding enrichment) (E-score (-0.5 to 0.5)); higher = stronger / more preferred TF binding). Details: protein concentration: 100 nM; construct: GST-full length.
T1 sequence: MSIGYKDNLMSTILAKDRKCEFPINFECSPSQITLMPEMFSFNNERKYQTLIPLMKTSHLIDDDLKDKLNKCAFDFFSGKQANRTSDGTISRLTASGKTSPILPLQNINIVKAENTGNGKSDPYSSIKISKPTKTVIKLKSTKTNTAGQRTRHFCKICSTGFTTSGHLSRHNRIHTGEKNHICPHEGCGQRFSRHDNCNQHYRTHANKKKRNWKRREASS
Method in brief: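 E-scores (a modified Wilcoxon-Mann-Whitney statistic) were assigned by the Universal PBM Analysis Suite to every ungapped eight-base word pooled with its reverse complement. The input came from universal all-10-mer Agilent arrays made double-stranded by primer extension and probed with GST-tagged yeast transcription factors at about 100-200 nM. Fluorescent anti-GST detected bound protein, and masliner normalised the scans.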

Sequence	PBM E-score
ACAATGAA	0.129
AGCCGGTA	-0.122
CGCTGTGA	-0.0408
CCCCCCAG	-0.493
GATTACAA	-0.0354
GGGACAGA	-0.126
ATTGGTCG	0.137
TCAAGCGA	0.0891
CGCGACGC	-0.0782
CGTACTCA	0.119
CCGGCGCA	0.0667
CAAGACAC	0.154
ATAGCGTA	0.124
CTTGCAAG	0.181
CTGACGAC	0.0249
TACCCTGA	0.265
ATATGTTA	-0.112
ACAGCATC	0.147
AATGAGGA	-0.141
CACACCTC	-0.0243
CCAATAGC	-0.116
CTGGACAG	-0.0205
ACGTTCCC	-0.104
ATTAATTG	0.142
CGTCCAAA	0.104

Sequence	PBM E-score
AACTTGTG	0.194
AGAATCTA	-0.134
ATGGGAAG	-0.151
AAACGATA	0.0265
ATTTTAGG	-0.0137
AGAGTGAG	0.0639
CACCGACA	0.0704
AAAAGTAG	0.0358
AACGGGTA	0.0396
CGGAGGAC	-0.212
ACTTGTCA	0.0495
AGCAAGAC	0.0975
AAGTACTG	-0.0715
GTGCCCGA	-0.146
ACACGCCG	0.134
AAACACAA	0.0433
ACATCCCG	0.111
CTTGCGTA	0.0548
AGACGCGA	-0.0959
AACCCTGG	0.315
AGTGGGTG	0.151
CTTTTTGA	-0.079
CCTTGACA	-0.0586
CGCTGTTA	-0.115
AATGTGTG	0.132

Laid out differently: results already given.
Sequence | PBM E-score
AGCCGGTA | -0.122
CGCTGTGA | -0.0408

Continued.

Sequence	PBM E-score
ACTTAGCC	0.0119
ACATATCT	0.112
GTGTCGAA	-0.0493
CCACCACA	-0.114
CCGACTTA	-0.0638
AACAAAGG	0.0899
AGCAGGAG	-0.104
AGAGTCAG	-0.0182
ATTGTGTA	0.0935
AACCTAAA	0.0784
AGATGATA	-0.0384
CACACTTC	-0.0329
CCCGTCAA	-0.217
AGTAGACA	-0.0452
CATTGCCG	-0.00492
GATGAATA	0.158
AAACAGCT	0.00193
GAAGCAGA	0.0381
GAAGCCAC	-0.1
AGGTACGA	-0.137
AATGAATC	0.0329
CATGAGTC	0.038
TAGAGCCA	-0.177
CACTTCTG	-0.0763
GCTACGAC	-0.0518

Sequence	PBM E-score
AGCTGCTA	0.0939
CACTAATC	0.22
CATTTTTA	-0.0648
CAGCGCGC	0.21
AACGACTC	-0.253
ACCGGCAG	-0.192
CTGGAAAC	-0.0687
GCTACACA	-0.185
CTACATTC	-0.195
GCCCGTCA	-0.211
GGAAAACC	0.0753
CTATTCCC	-0.0598
ATTGGGAA	0.0309
GCGGCCCA	-0.0651
GACGTTCA	-0.177
TGCTTTAA	0.0552
CATGTTCA	0.0756
AATCCTGA	-0.0127
CCGAGTGC	0.0883
CCCTTACA	0.0954
CGTATACA	-0.0377
CACGAATC	0.188
ATCGTTCG	0.0332
GAGCCCTA	-0.149
ATTAGTAA	0.245

Sequence	PBM E-score
GTTCTTGA	-0.00879
GCGTCGAC	0.222
CATCCATC	0.0146
AGGGAATA	0.245
ATGCATGG	0.0766
TATATATA	0.269
AGACCTCC	-0.377
CAAGCATC	0.0334
GTAAGTTA	-0.0275
ATCTGGTA	-0.0223
ACGTACGC	-0.158
ACAAGGAC	-0.0546
CGTTATTA	0.207
CTCGTCTC	0.0913
CTCTTCAG	0.109
GAAGTGGC	0.0999
CGTTTGTA	0.0634
GCCGTTTA	-0.00865
CCTACGGA	-0.347
CCGACATC	-0.0241
ATGTTCAC	0.083
AGGCGCTG	-0.0225
GAGAATCA	0.0788
TATCCGCA	0.0982
GATGTCAA	-0.0198

Sequence	PBM E-score
CATGGGGA	0.135
ATTCCAGA	-0.0957
AGTGCGGG	0.14
CATGCTCC	-0.19
AGTACTAG	0.0457
TGGAAAAA	0.00931
CGACCAAG	-0.0234
AGAACAGA	0.00692
CTTTTGAC	-0.105
ACCCTTAC	0.2
CGATAAAA	-0.0976
CCTCAGGC	-0.0134
AACCTTGC	-0.0724
CTTTCAAC	0.052
CGGACTCC	-0.0829
AGGGTTAG	0.081
ACATATGA	0.0473
GTCGTCCA	0.146
AAGACCGG	-0.155
CGGTGAAC	-0.0678
CGATATAG	0.14
ACGTCACA	0.0772
CAGCTAGG	-0.0907
CACGTCTG	0.0439
GCGGAACA	-0.00653

Sequence	PBM E-score
GGGCGACC	-0.00032
AAATACAC	0.0316
CAACTGCA	0.0432
AGCGCCCC	-0.166
CTTTGTTA	0.109
CACGCTCG	-0.0978
AGTGCAAA	0.258
ACCCGTCA	-0.0303
CGGGACCC	-0.0126
ATTATGAC	-0.0447
CTTGAGGA	-0.121
CACGATCG	0.118
AATGGGAC	0.15
CAGGTGCA	0.124
GTGAGCAC	-0.228
CAAATCGG	0.0907
CAACATAA	0.203
GTTGATTA	0.144
CAGCACAA	0.0492
ACGGGGCT	-0.146
CTAATCAG	0.0703
TATCTACA	0.127

Reprinted at random: 5 entries already listed.
Sequence	PBM E-score
CGCTGTGA	-0.0408
GTTCTTGA	-0.00879
ACAGCATC	0.147
AAATACAC	0.0316
AGATGATA	-0.0384
